Measurements reported in PMC8762023.
These are yes or no findings as the source states them, for the method shown. Binding seen in cells or lysates may run through a third protein. Some entries that bind do so weakly or less than the wild type. Sequences can lack the tags named with a protein.

By UniProt entry, the sequences of proteins in these tests, tags left out. Where a name states a change or a piece, a line headed by the entry shows the natural chain unless it says otherwise. Chains listed by the source or under a name are the forms on record and can include a tag or linker.
UniProt Q8IVH8: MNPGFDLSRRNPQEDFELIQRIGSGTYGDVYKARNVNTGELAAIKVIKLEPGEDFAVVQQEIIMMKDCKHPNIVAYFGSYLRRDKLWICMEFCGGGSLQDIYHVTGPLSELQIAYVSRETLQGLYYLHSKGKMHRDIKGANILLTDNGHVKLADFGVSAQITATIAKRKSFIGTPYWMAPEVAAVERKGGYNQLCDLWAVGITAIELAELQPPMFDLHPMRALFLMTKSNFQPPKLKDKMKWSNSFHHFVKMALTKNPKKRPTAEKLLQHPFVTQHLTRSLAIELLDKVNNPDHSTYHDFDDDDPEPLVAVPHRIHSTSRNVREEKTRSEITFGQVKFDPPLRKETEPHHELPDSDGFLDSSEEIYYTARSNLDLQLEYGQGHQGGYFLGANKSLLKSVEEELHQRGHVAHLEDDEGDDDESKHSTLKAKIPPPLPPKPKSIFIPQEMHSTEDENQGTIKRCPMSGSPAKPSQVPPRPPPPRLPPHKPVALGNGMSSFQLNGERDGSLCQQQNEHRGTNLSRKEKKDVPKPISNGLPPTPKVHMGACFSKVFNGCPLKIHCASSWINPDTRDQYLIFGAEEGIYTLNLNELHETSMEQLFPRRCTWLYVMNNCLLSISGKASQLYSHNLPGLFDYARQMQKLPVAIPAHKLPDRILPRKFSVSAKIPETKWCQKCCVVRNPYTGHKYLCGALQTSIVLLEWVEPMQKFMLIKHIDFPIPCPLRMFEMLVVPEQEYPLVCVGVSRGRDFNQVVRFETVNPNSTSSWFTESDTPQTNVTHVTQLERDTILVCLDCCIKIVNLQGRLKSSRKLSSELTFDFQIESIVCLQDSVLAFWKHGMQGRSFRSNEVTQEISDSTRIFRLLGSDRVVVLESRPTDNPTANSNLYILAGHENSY
Flag-GLKΔN (A410T) mutant (Q8IVH8, form named): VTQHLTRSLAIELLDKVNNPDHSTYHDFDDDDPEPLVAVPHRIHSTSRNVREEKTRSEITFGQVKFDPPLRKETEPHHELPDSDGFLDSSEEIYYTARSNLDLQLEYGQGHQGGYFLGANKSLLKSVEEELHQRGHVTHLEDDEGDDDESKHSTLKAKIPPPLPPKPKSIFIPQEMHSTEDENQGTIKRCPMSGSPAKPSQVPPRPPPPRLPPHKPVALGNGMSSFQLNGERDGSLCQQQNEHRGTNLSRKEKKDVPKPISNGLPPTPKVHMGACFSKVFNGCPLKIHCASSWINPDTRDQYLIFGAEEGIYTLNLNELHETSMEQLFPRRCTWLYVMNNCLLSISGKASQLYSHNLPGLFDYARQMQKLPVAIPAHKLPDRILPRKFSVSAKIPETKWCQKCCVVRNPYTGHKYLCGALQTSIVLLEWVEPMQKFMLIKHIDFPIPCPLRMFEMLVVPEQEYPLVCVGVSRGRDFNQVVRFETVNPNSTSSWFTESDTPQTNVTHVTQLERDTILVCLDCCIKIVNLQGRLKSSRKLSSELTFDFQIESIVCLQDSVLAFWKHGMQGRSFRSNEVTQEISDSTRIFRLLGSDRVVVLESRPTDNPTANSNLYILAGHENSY
Flag-GLKΔN (K650R) mutant (Q8IVH8, form named): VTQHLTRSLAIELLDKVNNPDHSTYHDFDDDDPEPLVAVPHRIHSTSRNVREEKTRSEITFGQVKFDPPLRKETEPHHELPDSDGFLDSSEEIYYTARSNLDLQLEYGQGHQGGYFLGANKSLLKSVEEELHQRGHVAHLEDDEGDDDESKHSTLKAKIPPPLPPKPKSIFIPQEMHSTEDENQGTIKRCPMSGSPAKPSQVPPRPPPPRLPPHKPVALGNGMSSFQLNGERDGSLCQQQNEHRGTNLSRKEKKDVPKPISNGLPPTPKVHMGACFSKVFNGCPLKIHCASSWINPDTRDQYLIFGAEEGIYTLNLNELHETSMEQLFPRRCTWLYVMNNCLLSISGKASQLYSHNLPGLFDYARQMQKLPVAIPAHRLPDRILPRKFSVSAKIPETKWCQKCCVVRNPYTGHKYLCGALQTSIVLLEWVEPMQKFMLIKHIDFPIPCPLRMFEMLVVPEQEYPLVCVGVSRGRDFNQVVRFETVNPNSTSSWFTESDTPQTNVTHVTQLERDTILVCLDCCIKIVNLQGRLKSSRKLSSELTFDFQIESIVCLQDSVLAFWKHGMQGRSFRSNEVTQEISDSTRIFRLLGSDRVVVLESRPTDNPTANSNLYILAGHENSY

Experiments:
Myc-MKRN4 (human) [1] = target: T1, Myc-MKRN4 (human) (UniProt Q13434); experiment: proximity ligation; in situ PLA of Myc-tagged MKRN4 and Flag-tagged GLK in HEK293T cells; 25 µM MG132 for 2 hours before harvest
T1 sequence: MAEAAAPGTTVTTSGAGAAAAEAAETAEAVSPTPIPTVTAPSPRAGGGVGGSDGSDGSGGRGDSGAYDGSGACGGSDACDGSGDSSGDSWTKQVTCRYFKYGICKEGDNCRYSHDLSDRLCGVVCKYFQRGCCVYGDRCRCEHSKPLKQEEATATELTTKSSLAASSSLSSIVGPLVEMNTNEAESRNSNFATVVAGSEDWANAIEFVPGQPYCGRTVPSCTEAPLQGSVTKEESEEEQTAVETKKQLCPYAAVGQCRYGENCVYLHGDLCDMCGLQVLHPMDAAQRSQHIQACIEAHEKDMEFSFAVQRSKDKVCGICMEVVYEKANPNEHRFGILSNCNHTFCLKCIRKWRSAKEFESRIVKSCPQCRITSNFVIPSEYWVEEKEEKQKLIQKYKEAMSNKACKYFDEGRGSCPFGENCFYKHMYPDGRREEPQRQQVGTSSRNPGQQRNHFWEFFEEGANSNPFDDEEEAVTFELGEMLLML

Myc-MKRN4 (human) [2] = target: T1, Myc-MKRN4 (human); experiment: co-IP; lysates of HEK293T cells cotransfected with Myc-MKRN4 plus Flag-GLKΔN wild-type or mutant plasmids

Row | binding (Myc-MKRN4 (human) [1]) | binding (Myc-MKRN4 (human) [2]) | Substance
1 | binds |  | Flag-GLK (MAP4K3), in HEK293T cells (from UniProt Q8IVH8 1-894) (enzyme)
2 |  | no binding | Flag-GLKΔN (A410T) mutant (from UniProt Q8IVH8 273-894) (domain or fragment)
3 |  | binds | Flag-GLKΔN (K650R) mutant (from UniProt Q8IVH8 273-894) (domain or fragment)
4 |  | binds | Flag-GLKΔN wild-type (deletion of amino acids 1–272) (from UniProt Q8IVH8 273-894) (domain or fragment)
